# Measured values reported in the supplement of paper PMC3334620.
# The full ranking holds about 33,000 sequences; the median of “E-score (-0.5 to 0.5)” is about -8e-05, and the highest 2% start at about 0.23. Some of the results follow.
# Molecular target: T1, Nrg2 (UniProt P38082)
# T1 sequence: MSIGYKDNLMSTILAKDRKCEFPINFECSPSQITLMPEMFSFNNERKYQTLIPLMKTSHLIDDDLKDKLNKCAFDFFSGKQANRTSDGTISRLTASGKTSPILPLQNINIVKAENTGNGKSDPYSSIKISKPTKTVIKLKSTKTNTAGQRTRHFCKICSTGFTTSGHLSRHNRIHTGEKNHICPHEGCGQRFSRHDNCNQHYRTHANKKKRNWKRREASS
# Experiment: PBM E-score (8-mer binding enrichment) (E-score (-0.5 to 0.5)); higher = stronger / more preferred TF binding
# Conditions: protein concentration: 100 nM; construct: GST-full length
# Method: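 Universal 'all 10-mer' protein binding microarrays (Agilent AMADID 015681) probed with GST-tagged S. cerevisiae TFs (full-length or DBD) made by in vitro transcription/translation (PURExpress), about 100-200 nM. Bound TF was detected with fluorescent anti-GST. Each ungapped 8-mer (which stands for itself and its reverse complement) is scored by the PBM enrichment score (E-score), a modified Wilcoxon-Mann-Whitney statistic from -0.5 to +0.5, computed with the Universal PBM Analysis Suite. Scale: above 0.35 generally sequence-specific binding.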
row,Sequence,PBM E-score
1,AAGCATCG,-0.00786
2,CGATGAAG,-0.0228
3,AGACGAAT,0.0425
4,GCCCCCGA,-0.395
5,ATTTCTTA,0.0783
6,ACTGTTGG,-0.179
7,AGGGGATA,0.0551
8,CCTTAACA,0.0513
9,AGAGTCTC,-0.163
10,CCGCAATC,0.159
11,ATTTAGTG,0.0472
12,AGGTGTAT,0.092
13,CTACTCCC,-0.0742
14,ATGATATA,-0.00525
15,CTTGGGAC,-0.0635
16,CGTAAACG,-0.212
17,ACGGTTAC,0.119
18,ATAGCACA,0.132
19,GACCGCCC,-0.143
20,AAGTCTGT,-0.0411
21,ACCGTTTC,-0.0786
22,CTACCGTA,-0.153
23,CGGGTTGC,-0.00542
24,CCGACAGC,-0.189
25,ATACGAAG,0.0208

row,Sequence,PBM E-score
1,AAATAAAC,0.1
2,CTACTAGA,0.00869
3,CCCTTTAG,-0.0907
4,CTAACCAG,-0.0116
5,CAAATATG,-0.0116
6,ATCTCTCC,0.0215
7,TAATGCAA,-0.0601
8,AAGACGAA,0.142
9,AAACAGGA,-0.0481
10,GATCAATC,-0.127
11,GCCAACGC,-0.00531
12,CAGCGCTG,-0.0798
13,CCGTAGGA,-0.217
14,CGTGGCCA,-0.18
15,CCATTTTA,0.159
16,GGAAGGCA,-0.1
17,AATGCGCC,0.132
18,ATTTCTCC,0.0443
19,AACTTTCT,0.109
20,ATAGTAGC,0.25
21,CGGATCGC,0.0299
22,GGACGGCA,-0.169
23,GTGTGACA,-0.162
24,AAGCTGAA,0.00198
25,GGAGCACC,0.00474

# Some of the entries so far, bar-delimited.
row | Sequence | PBM E-score
6 | ATCTCTCC | 0.0215
8 | AAGACGAA | 0.142
16 | GGAAGGCA | -0.1
19 | AACTTTCT | 0.109
20 | ATAGTAGC | 0.25
24 | AAGCTGAA | 0.00198
25 | GGAGCACC | 0.00474

# Next results follow:

row,Sequence,PBM E-score
1,ATCGAGTG,0.127
2,ACTTGCCG,-0.11
3,CTGACAAC,0.0747
4,AGTATGGC,0.00691
5,ATCAGGAC,-0.00431
6,AGGTTTCG,-0.0228
7,GTCCGCGA,-0.0693
8,ATCGCCGC,-0.0111
9,AAGGTGCC,-0.104
10,ACGGCTTC,-0.00831
11,GAGAATGA,0.0708
12,GTTGATAA,0.232
13,GGCCTCCA,-0.107
14,CGACCACG,-0.0616
15,CTGCAGCC,0.00529
16,CCGTCAAG,-0.0837
17,CAACGGGG,-0.0389
18,ATCACCAT,0.0544
19,AACAATAA,0.26
20,CTCGCCAC,0.00234
21,CCCAAGGA,-0.0867
22,CATTTAAC,-0.179
23,ATTCACCG,0.127
24,GTATCGAC,0.123
25,ACCGAATG,-0.0349

row,Sequence,PBM E-score
1,GCAACACA,0.0571
2,AACCATGT,0.00314
3,AGTCTAAC,-0.163
4,AAACGCCG,0.0737
5,GAGAGGGC,-0.243
6,ACCTCTGA,0.0539
7,CAGTGAAG,-0.0253
8,CCCCTGGC,0.11
9,CGAGATGA,0.0537
10,AACCTGGC,-0.18
11,ATCTTGGG,0.0749
12,GTCCCAAC,0.0374
13,GACTAATC,0.0266
14,GGTCACAA,0.0577
15,GTAGAGTA,-0.0442
16,ACTAATTC,0.0973
17,CAAGGTGC,-0.0554
18,GATGCATC,0.191
19,AAAGGCCC,-0.0652
20,AGCATTCA,-0.0323
21,ATCCATAA,0.177
22,ACGGTAAT,-0.0837
23,AGTGATTC,0.0833
24,ACATCAGA,0.0456
25,GCGTAAGA,-0.141

row,Sequence,PBM E-score
1,AGCCTGTA,-0.126
2,AGACGTGC,0.0659
3,AACGGAGG,-0.0849
4,AATAGGCG,0.175
5,GACTACCC,-0.061
6,AAAATCCA,0.112
7,CGCCTACC,-0.0625
8,AACTCTGT,0.086
9,ACCATCAC,-0.0188
10,GCGAACTA,0.149
11,AGCATTGC,-0.00194
12,CGACCGGC,0.034
13,ACGTTTCA,-0.0233
14,CGGCAAAG,0.0628
15,GGGTACAA,0.206
16,GGTATCCA,-0.00467
17,AAACATCT,-0.114
18,AGTAATCG,0.115
19,ACATCCTG,0.105
20,GTTGGTCA,0.229
21,AACTAGCA,0.127
22,AGATCTGC,0.0227
23,AGACTGCT,-0.125
24,GCGTTCCC,-0.043
25,GTCCTACA,0.151

row,Sequence,PBM E-score
1,AGCATAAG,0.127
2,GGACGTTA,-0.00032
3,ACTTGATC,0.118
4,ATCACATC,0.0387
5,AATCTGTA,0.0668
6,CTCAGATA,0.11
7,AACTTCGA,0.0954
8,CAGGCGCA,-0.114
9,AAGTATGT,0.118
10,CTTATTGC,-0.0715
11,AATAACAT,0.146
12,AGAACGTG,0.149
13,CGGTGGGC,-0.184
14,CAACCTTG,0.0858
15,TTGCGCAA,0.187
16,TAGGCGGA,0.0991
17,AGCAGTGC,-0.287
18,ACATCGAC,-0.0585
19,TAGGGTCA,0.218
20,AATTTACT,0.118
21,AGACCGCC,0.0873
22,ATCACCAA,0.148
23,CCCGGACG,-0.253
24,ATCCCACC,0.0587
25,CCCAGAGG,-0.233

row,Sequence,PBM E-score
1,CGCATTTA,0.0478
2,ATCCGAAG,-0.0314
3,TTCCGCAA,0.114
4,AGGCGCAA,0.13
5,ATATCCCG,0.111
6,CATAGTAC,-0.0256
7,GGTTCCGA,0.0687
8,GAACCCTC,-0.149
9,CAGTTTCA,0.0515
10,CGTCTATC,-0.167
11,CGAACTAG,0.0773
12,CTTGTAGA,-0.258
13,GTACCCAC,-0.153
14,GTAACATA,0.0856
15,CCACTATC,0.0741
16,GTTTGCTA,0.0143
17,GAACTTAA,-0.0517
18,AGGCACGC,-0.109
19,TTAACGAA,0.14
20,ATGAGAGC,0.00785
21,GTATGACA,-0.0684
22,ATCATTGA,0.0568
23,CTTCCGCC,-0.106
24,TACGTCAA,-0.13
25,CCTGAGCG,-0.0529

row,Sequence,PBM E-score
1,AACTAATG,0.194
2,AACCCAGA,0.0315
3,ATTCCTTA,0.0604
4,ACCATTAA,0.126
5,GCAGTGAA,0.211
6,AACGGTGT,-0.0219
7,CACACATA,-0.033
8,CAGTACTC,-0.171
9,CCGTGACC,-0.211
10,CTGTGCAA,0.0249
11,CCCTAGTC,-0.159
12,AGGCTCTC,-0.305
13,CTGACGCA,-0.0803
14,GAAGGCTC,-0.256
15,CCACCGTA,-0.057
16,TCTTCGAA,-0.00064
17,CTAAGAAC,0.137
18,ATAAGAAC,0.36
19,CACATGAA,0.0326
20,ACGAGTAG,0.00198
21,CAGCACGG,-0.0747
22,ATCAGCGG,0.115
23,AACTTATA,0.145
24,CTTCGACC,0.0651
25,AATTTGCC,-0.00595

row,Sequence,PBM E-score
1,ATACCAAT,0.0716
2,CAATGCCG,0.106
3,GATTAGCC,0.0964
4,AAATACGG,0.0268
5,TATTCTCA,0.0618
6,CGGCATAA,0.0678
7,GACTATGA,0.00129
8,CACAGAAA,0.148
9,CCCAAGTC,-0.124
10,CCTCTCAC,-0.0732
11,GAAACGCA,0.082
12,TTAACCAA,0.125
13,CTGCCTCC,-0.0611
14,CTCAGGGC,0.157
15,AAGCCGGG,0.0638
16,TCCCTACA,-0.0231
17,AAAGGGGC,0.0155
18,GAATACCA,0.214
19,GTAGGAAC,0.00902
